Test results reported in publication PMC4385842.
No constants are given. Whether binding was seen depends on the method and setting. In cells and extracts the contact can be indirect. Some entries that bind do so weakly or less than the wild type.

Sequences of proteins named here, by UniProt entry; tags and fusion partners are left off.
UniProt O43707: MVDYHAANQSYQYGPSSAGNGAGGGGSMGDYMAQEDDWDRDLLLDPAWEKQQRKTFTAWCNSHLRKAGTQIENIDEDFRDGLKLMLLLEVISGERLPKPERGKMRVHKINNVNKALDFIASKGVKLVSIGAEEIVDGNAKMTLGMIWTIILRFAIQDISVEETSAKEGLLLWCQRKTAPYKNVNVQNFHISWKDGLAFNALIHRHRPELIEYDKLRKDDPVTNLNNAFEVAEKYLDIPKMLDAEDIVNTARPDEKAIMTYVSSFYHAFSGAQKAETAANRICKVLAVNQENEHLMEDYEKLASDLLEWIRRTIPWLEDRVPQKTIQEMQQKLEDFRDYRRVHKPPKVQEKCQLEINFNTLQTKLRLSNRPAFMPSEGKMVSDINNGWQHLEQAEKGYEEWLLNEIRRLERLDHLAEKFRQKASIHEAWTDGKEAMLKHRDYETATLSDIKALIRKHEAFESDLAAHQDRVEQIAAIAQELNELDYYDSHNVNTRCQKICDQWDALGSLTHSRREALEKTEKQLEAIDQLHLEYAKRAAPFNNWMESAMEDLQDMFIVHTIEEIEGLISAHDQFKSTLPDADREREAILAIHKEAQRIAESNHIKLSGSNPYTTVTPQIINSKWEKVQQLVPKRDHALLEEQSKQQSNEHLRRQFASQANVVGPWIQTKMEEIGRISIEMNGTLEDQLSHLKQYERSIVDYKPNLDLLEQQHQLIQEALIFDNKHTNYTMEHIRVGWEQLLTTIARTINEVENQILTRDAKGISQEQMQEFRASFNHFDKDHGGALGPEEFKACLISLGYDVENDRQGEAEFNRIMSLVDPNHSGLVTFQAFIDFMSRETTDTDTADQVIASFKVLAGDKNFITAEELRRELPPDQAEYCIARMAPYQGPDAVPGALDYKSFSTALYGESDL

Biological target: T1, Caprin-1 (Cytoplasmic activation- and proliferation-associated protein 1) (human (endogenous in HONE-1)) (UniProt Q14444)
T1 sequence: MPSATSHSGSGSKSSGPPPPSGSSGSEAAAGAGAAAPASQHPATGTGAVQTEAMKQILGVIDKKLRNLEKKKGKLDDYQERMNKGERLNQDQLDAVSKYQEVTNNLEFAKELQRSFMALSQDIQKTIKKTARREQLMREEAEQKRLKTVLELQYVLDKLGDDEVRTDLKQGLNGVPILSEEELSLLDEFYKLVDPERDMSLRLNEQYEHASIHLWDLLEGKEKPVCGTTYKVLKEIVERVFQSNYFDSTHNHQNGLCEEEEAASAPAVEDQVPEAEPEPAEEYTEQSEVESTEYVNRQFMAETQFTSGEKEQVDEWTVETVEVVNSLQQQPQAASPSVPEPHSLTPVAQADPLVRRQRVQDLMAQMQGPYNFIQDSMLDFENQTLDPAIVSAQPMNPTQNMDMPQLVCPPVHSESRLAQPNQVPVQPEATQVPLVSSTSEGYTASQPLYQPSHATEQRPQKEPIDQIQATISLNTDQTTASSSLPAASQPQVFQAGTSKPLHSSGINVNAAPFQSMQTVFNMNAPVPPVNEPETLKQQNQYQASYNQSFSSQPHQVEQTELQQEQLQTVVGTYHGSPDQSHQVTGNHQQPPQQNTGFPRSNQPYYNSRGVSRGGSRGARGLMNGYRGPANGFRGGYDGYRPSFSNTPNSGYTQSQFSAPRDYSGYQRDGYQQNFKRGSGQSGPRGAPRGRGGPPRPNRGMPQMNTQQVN
Test: co-IP; anti-caprin-1 antibody (ProteinTech Group) on HONE-1 cell lysate in the presence of biotinylated tylophorine; immunoblot with the indicated antibodies

With α-actinin-4 (from UniProt O43707 1-911) as the substance, how does the binding read?
The binding was “binds”.
